The values that follow come from article PMC5027291, “The NF-YC–RGL2 module integrates GA and ABA signalling to regulate seed germination in Arabidopsis” (Nature Communications, 2016).

By UniProt entry, the sequences of proteins in these tests, tags left out. Where a name states a change or a piece, a line headed by the entry shows the natural chain unless it says otherwise.
UniProt P06774: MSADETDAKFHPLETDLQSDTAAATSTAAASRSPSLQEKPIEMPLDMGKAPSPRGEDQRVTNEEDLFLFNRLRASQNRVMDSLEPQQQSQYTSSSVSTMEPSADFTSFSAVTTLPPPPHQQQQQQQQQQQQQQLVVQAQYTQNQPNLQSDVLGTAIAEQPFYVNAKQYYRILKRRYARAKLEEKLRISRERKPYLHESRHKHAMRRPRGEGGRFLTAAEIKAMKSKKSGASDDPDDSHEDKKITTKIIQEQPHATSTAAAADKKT

One assay has as its target T1, GST-RGL2 (Arabidopsis, UniProt Q8GXW1 1-547).
T1 construct: RGL2 of Arabidopsis; coding region cloned into pGEX-4T-1; source: E. coli Rosetta (DE3), purified (Glutathione Sepharose beads); not shown: GST, N-terminal, kept
T1 sequence (looked up): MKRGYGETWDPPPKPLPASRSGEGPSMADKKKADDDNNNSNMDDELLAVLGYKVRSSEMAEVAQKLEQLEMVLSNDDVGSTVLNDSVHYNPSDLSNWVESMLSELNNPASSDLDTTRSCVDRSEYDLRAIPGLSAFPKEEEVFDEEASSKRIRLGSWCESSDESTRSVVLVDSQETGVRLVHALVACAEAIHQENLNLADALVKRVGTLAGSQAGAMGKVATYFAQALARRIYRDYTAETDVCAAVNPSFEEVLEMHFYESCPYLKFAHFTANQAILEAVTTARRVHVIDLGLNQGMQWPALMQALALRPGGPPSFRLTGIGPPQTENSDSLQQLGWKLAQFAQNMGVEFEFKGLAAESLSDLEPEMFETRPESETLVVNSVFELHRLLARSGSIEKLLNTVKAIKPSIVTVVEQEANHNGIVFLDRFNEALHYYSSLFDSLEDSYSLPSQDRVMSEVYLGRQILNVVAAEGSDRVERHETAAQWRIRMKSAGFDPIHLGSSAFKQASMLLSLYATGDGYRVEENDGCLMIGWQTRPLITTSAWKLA
The assay can be described thus: pull-down; protein-DNA affinity pull-down: 1 ug each of His-NF-YC9, His-Yeast NF-YA and His-Yeast NF-YB pre-incubated with DNA fragments (100 mM phosphate, 150 mM NaCl, 1 mM EDTA, pH 7.5, 4 °C, 4 h), then mixed with GST or GST-RGL2 on Glutathione Sepharose beads for 4 h; DNA by qPCR, proteins by anti-His or anti-GST; both purified.

Another assay concerns the target T2, RGL2-cEYFP (Arabidopsis) (UniProt Q8GXW1).
T2 sequence: T1 sequence (looked up)
In words: split reporter; BiFC of NF-YC9-nEYFP and RGL2-cEYFP in Arabidopsis mesophyll protoplasts, 12 h after PEG-mediated transformation, confocal microscopy.

No constants are given. Whether binding was seen depends on the method and setting. For some assays here: In cells and extracts the contact can be indirect. Some results given as binding are weak or reduced against the parent protein; the word gives no strength. For some assays here: Where a sequence is shown, tags or fusion partners need not be part of it.

For the molecule “NF-YA core/NF-YB core/NF-YC9 complex (from UniProt P06774 158-214; P13434 35-127; Q8L4B2 1-231)”, in the assay with GST-RGL2, the binding result is recorded as “binds”.

B1: His-NF-YC9 (natural protein, Arabidopsis, UniProt Q8L4B2 1-231, looked up)
chain: MDQQDHGQSGAMNYGTNPYQTNPMSTTAATVAGGAAQPGQLAFHQIHQQQQQQQLAQQLQAFWENQFKEIEKTTDFKNHSLPLARIKKIMKADEDVRMISAEAPVVFARACEMFILELTLRSWNHTEENKRRTLQKNDIAAAVTRTDIFDFLVDIVPREDLRDEVLGSIPRGTVPEAAAAGYPYGYLPAGTAPIGNPGMVMGNPGGAYPPNPYMGQPMWQQQAPDQPDQEN
notes: NF-YC9 of Arabidopsis; coding region cloned into pQE30; source: E. coli Rosetta (DE3), purified (Ni-NTA agarose); not shown: His, N-terminal, kept
Consider B1, for which, in the assay with RGL2-cEYFP (Arabidopsis), the binding entry was “binds”.
